The record followed here is article PMC7819943, “Rice protein-binding microarrays: a tool to detect cis-acting elements near promoter regions in rice”.

The other results are listed elsewhere or left out.

The experiment has as its target T1, OsSMF1 (Oryza sativa, UniProt Q6ZLB0 1-436).
T1 sequence: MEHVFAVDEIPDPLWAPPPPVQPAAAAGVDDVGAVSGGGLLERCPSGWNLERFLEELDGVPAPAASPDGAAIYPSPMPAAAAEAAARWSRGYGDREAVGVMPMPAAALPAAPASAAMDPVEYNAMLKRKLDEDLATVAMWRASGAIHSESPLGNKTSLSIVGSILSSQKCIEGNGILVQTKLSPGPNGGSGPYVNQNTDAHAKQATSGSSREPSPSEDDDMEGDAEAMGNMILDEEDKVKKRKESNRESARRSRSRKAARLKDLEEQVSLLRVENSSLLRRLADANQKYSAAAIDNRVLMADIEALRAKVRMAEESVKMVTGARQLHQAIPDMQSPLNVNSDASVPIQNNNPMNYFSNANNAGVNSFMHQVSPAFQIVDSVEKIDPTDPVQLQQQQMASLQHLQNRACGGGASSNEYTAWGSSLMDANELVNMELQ
The experiment can be described thus: protein-binding microarray (RPBM); PBS, 2% BSA, 51.3 ng/ul salmon testes DNA, 50 uM zinc acetate, 200 nM TF, 25 C, 1 h; high values mean tight binding. The following applies: protein: recombinant; tags: N-terminal polyhistidine and DsRed monomer fusion (pET32a); chain copies: 2; label: CyDye5-dUTP incorporated in the synthesized complementary strand; 3' TTTTT single-stranded linker to array surface; dsDNA, one strand shown. The gist of the method: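 Binding signal is reported as fluorescence intensity per feature (arbitrary units) from an Axon 4000B scanner. Incubation used 200 nM of each Ni–NTA-purified, N-terminally polyhistidine- and DsRed-fused transcription factor from E. coli BL21-CodonPlus on a double-stranded custom Agilent array for 1 h at 25 °C, with 50 µM zinc acetate in the buffer, followed by washing.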
Regarding “CTTAAGGGTGGATCTGACAATGGTAGCGACACTTGCATCACGGAGTCACCTAGTGCAG”, the binding signal is 3180 fluorescence intensity (a.u.).

Regarding “ACTGTAGCTAATCCAGTTTTAAATTAAAGGACGTGTTTTACGGAGTCACCTAGTGCAG”, the binding signal is 8680 fluorescence intensity (a.u.).

With “TTGATTTCTTCCTCTGCGAGTCCACTCCCAGTCCAGGGTCCGGAGTCACCTAGTGCAG”, the binding signal is 4240 fluorescence intensity (a.u.).

“CAAAGAGCCCTGTTATGTTGACTGGTGCACAGTGTCATCACGGAGTCACCTAGTGCAG”: the binding signal is 3890 fluorescence intensity (a.u.).

With “CATTGGTGGCGTAATGTGGTTGTTAGTGATTTGTTGCACCCGGAGTCACCTAGTGCAG”, the binding signal is 3460 fluorescence intensity (a.u.).

On to “CATGAATACAAAAGAACAGTTATTTAGACAGGTGTAAATACGGAGTCACCTAGTGCAG”, for which the binding signal is 30100 fluorescence intensity (a.u.).

As for “GTACGGATATAGCACTAGTTGTCAGCAACCACTCAACCGGCGGAGTCACCTAGTGCAG”, the binding signal was 3360 fluorescence intensity (a.u.).

With “ACTAACATGTCACGTAATTTCAATAAGCAAGATAGTAATACGGAGTCACCTAGTGCAG”, the binding signal is 33000 fluorescence intensity (a.u.).

For “AAACCCACTCCACCACACGGGTCGACTCGACTCCCACTCGCGGAGTCACCTAGTGCAG”, the binding signal is 5910 fluorescence intensity (a.u.).

Consider “CTACATAATATTATTAATTTGTGTGCGAAACTGCATGTGGCGGAGTCACCTAGTGCAG”, for which the binding signal is 3840 fluorescence intensity (a.u.).

Turning to “GGAATTGCGTGATTGAATTCAAAATTGGGATGATAAATATCGGAGTCACCTAGTGCAG”, the binding signal was 5320 fluorescence intensity (a.u.).

As for “AAGAAGGCCCGTCTAGCTCAGTCGGTAGAGCGCAAGGCTCCGGAGTCACCTAGTGCAG”, the binding signal is 35100 fluorescence intensity (a.u.).

On to “GCCAGCGTGGTAGTCTGGCAGGCATAGTATATTCGATTTGCGGAGTCACCTAGTGCAG”, for which the binding signal is 24800 fluorescence intensity (a.u.).

Consider “GCAGCATCTGTGATCTCTCAGTGGGACCCACGTGTCATTGCGGAGTCACCTAGTGCAG”, for which the binding signal is 5010 fluorescence intensity (a.u.).

Take “TTGACCATCGGCCACACGTGTGTGGGTGCGTGCGTGCGTGCGGAGTCACCTAGTGCAG”: the binding signal was 6830 fluorescence intensity (a.u.).

Turning to “GCCAGGCAGGGGAGGGTCGTTAAGTAGCATCCCATGTCACCGGAGTCACCTAGTGCAG”, the binding signal is 3940 fluorescence intensity (a.u.).

Regarding “AAACCTCTCTAACATTACCCTGTCAGTTATTGTCAGGCCCCGGAGTCACCTAGTGCAG”, the binding signal was 3510 fluorescence intensity (a.u.).

On to “TACGGCATGAATGACATAACGCTGTCGACAATTGACCTGCCGGAGTCACCTAGTGCAG”, for which the binding signal was 3740 fluorescence intensity (a.u.).

With “CTGCCGCCCTGCACACACATGCACATTGGCACGAGCTTAGCGGAGTCACCTAGTGCAG”, the binding signal was 3880 fluorescence intensity (a.u.).

Turning to “ACATTTTGCGTGCGTGGAGAGAAGCACTAATACACCATTACGGAGTCACCTAGTGCAG”, the binding signal is 3840 fluorescence intensity (a.u.).

For the sequence “TTTGGGTGCTAGCCGCGCAATTGTGCGCGCCACCCAACTACGGAGTCACCTAGTGCAG”, the binding signal was 32900 fluorescence intensity (a.u.).

Turning to “GTTCGTAAGACGTGGATCTGAATGTCAACATTGTCGTTTGCGGAGTCACCTAGTGCAG”, the binding signal was 6070 fluorescence intensity (a.u.).

Consider “TAGCTGAGTGACACCTCACCGTTTGGTTTTCACCCTCCCACGGAGTCACCTAGTGCAG”, for which the binding signal was 8070 fluorescence intensity (a.u.).
